{
  "source": "the supplement of paper PMC3334620",
  "note": "The full ranking holds about 33,000 sequences; the median of “E-score (-0.5 to 0.5)” is about -0.016, and the highest 2% start at about 0.3. Some of the results follow.",
  "data": [
    {"target": "T1, Yer184c (UniProt P39961)", "T1 sequence": "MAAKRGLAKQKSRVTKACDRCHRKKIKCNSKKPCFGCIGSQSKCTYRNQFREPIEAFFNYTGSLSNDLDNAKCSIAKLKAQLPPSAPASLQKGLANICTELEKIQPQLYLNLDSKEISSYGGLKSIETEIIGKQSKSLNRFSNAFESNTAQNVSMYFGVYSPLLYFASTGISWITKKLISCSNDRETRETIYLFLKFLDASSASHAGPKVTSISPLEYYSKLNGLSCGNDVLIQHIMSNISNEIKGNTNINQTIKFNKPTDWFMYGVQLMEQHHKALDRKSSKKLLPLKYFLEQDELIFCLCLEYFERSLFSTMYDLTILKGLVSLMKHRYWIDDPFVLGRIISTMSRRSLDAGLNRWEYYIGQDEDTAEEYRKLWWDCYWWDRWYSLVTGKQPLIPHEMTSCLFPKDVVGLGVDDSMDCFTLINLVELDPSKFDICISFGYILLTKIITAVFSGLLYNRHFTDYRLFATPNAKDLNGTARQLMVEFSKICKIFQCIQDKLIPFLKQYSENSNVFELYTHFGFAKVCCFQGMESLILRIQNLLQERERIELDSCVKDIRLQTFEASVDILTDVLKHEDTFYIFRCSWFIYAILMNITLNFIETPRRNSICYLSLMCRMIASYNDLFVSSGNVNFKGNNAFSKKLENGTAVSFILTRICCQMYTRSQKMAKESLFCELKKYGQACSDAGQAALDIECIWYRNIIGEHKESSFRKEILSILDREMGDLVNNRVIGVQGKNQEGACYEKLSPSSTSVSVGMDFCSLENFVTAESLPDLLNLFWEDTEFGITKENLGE", "test": "PBM E-score (8-mer binding enrichment) (E-score (-0.5 to 0.5)); higher = stronger / more preferred TF binding", "conditions": "protein concentration: 100 nM; construct: GST-full length", "procedure,_shortened": "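Universal all-10-mer Agilent arrays, double-stranded by primer extension on fresh or once-stripped slides, were probed with about 100-200 nM GST-tagged yeast transcription factors made by PURExpress. Fluorescent anti-GST detected bound protein, and masliner normalised the scans. E-scores from the Universal PBM Analysis Suite were given to each ungapped eight-base word pooled with its reverse complement.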", "values": [
      {"sequence": "GAGTCGCA", "PBM E-score": -0.295},
      {"sequence": "CACGCTGG", "PBM E-score": -0.172},
      {"sequence": "CAAGTACA", "PBM E-score": -0.0692},
      {"sequence": "CTGACTTC", "PBM E-score": 0.102},
      {"sequence": "GGCCCCAC", "PBM E-score": -0.332},
      {"sequence": "AGCAACCG", "PBM E-score": 0.0619},
      {"sequence": "CATCAGGG", "PBM E-score": -0.242},
      {"sequence": "GGTGATTA", "PBM E-score": 0.0797},
      {"sequence": "AACGGGCT", "PBM E-score": -0.125},
      {"sequence": "ACCCTCCA", "PBM E-score": -0.283},
      {"sequence": "CCGATCCA", "PBM E-score": 0.0278},
      {"sequence": "AATCGGCC", "PBM E-score": 0.146},
      {"sequence": "GAGTACAA", "PBM E-score": 0.114},
      {"sequence": "ATAGTGAA", "PBM E-score": 0.144},
      {"sequence": "CCCGAGCA", "PBM E-score": -0.148},
      {"sequence": "CGGACAAC", "PBM E-score": 0.373},
      {"sequence": "CCAAGTGC", "PBM E-score": -0.253},
      {"sequence": "GACCCGGA", "PBM E-score": 0.212},
      {"sequence": "GACATGGC", "PBM E-score": -0.26},
      {"sequence": "CATACCCG", "PBM E-score": -0.0295},
      {"sequence": "GGAATCAA", "PBM E-score": 0.157},
      {"sequence": "ACACGCCC", "PBM E-score": -0.338},
      {"sequence": "GACCGGCA", "PBM E-score": 0.173},
      {"sequence": "GTGATGAA", "PBM E-score": -0.162},
      {"sequence": "ACCTACAC", "PBM E-score": -0.309},
      {"sequence": "TCCCAAGA", "PBM E-score": 0.0686},
      {"sequence": "GTAATGCA", "PBM E-score": -0.157},
      {"sequence": "CGAACGGA", "PBM E-score": 0.283},
      {"sequence": "CACATGAC", "PBM E-score": -0.224},
      {"sequence": "AATAATGT", "PBM E-score": 0.105},
      {"sequence": "AAAAGCTG", "PBM E-score": -0.123},
      {"sequence": "ACAAACAT", "PBM E-score": 0.0706},
      {"sequence": "GTAACGCA", "PBM E-score": 0.0964},
      {"sequence": "CCAGAGTC", "PBM E-score": -0.0661},
      {"sequence": "ATTCAGTA", "PBM E-score": 0.13},
      {"sequence": "ACACGGGT", "PBM E-score": -0.0189},
      {"sequence": "ATGTCTTA", "PBM E-score": -0.229},
      {"sequence": "CCAGCTAA", "PBM E-score": -0.204},
      {"sequence": "GGGTAACC", "PBM E-score": -0.248},
      {"sequence": "AAATATTC", "PBM E-score": 0.139},
      {"sequence": "CGAGTAAA", "PBM E-score": 0.202},
      {"sequence": "CCCTTGGC", "PBM E-score": -0.255},
      {"sequence": "GTCTGGGA", "PBM E-score": -0.178},
      {"sequence": "AAATAGAA", "PBM E-score": 0.0485},
      {"sequence": "CGCGTTTC", "PBM E-score": -0.0961},
      {"sequence": "GATATTAC", "PBM E-score": 0.244},
      {"sequence": "AGCGGTGC", "PBM E-score": -0.168},
      {"sequence": "CATGCAGA", "PBM E-score": -0.0557},
      {"sequence": "CTAGGCTA", "PBM E-score": -0.242},
      {"sequence": "AGCGGCAC", "PBM E-score": -0.0845},
      {"sequence": "AATCGTAT", "PBM E-score": 0.039},
      {"sequence": "AGGTGTAG", "PBM E-score": -0.344},
      {"sequence": "GGCCGAGA", "PBM E-score": 0.348},
      {"sequence": "TGCTGGAA", "PBM E-score": 0.14},
      {"sequence": "ACCTTGCC", "PBM E-score": -0.126},
      {"sequence": "ACGCCAAC", "PBM E-score": -0.0437},
      {"sequence": "CAACACAG", "PBM E-score": 0.00627},
      {"sequence": "GGCGTTGA", "PBM E-score": -0.0369},
      {"sequence": "GTTACTGA", "PBM E-score": 0.264},
      {"sequence": "AGAACACG", "PBM E-score": -0.081},
      {"sequence": "AACGCGTA", "PBM E-score": -0.0115},
      {"sequence": "CGATTTAG", "PBM E-score": 0.143},
      {"sequence": "GGCACTAC", "PBM E-score": -0.144},
      {"sequence": "AAGTCGGT", "PBM E-score": 0.0483},
      {"sequence": "GCGCTAAA", "PBM E-score": 0.0325},
      {"sequence": "GTTCGTTA", "PBM E-score": 0.235},
      {"sequence": "CGGTTGAG", "PBM E-score": 0.197},
      {"sequence": "GAGTCGCC", "PBM E-score": -0.197},
      {"sequence": "ATGTGCGG", "PBM E-score": -0.0481},
      {"sequence": "ACTATTCC", "PBM E-score": 0.249},
      {"sequence": "GGTACTGA", "PBM E-score": -0.155},
      {"sequence": "CAGTATTA", "PBM E-score": 0.128},
      {"sequence": "ACGAGAAT", "PBM E-score": 0.0622},
      {"sequence": "AATTGACC", "PBM E-score": 0.0441},
      {"sequence": "CGCACTAG", "PBM E-score": -0.117},
      {"sequence": "CTATCCCC", "PBM E-score": -0.235},
      {"sequence": "CGCTCTAG", "PBM E-score": -0.29},
      {"sequence": "CAGGACGA", "PBM E-score": -0.183},
      {"sequence": "AGGTTCCC", "PBM E-score": -0.239},
      {"sequence": "AAACTGCA", "PBM E-score": -0.0586},
      {"sequence": "AAGTAGGG", "PBM E-score": -0.0731},
      {"sequence": "CAACCTAC", "PBM E-score": -0.0667},
      {"sequence": "AACTTTTC", "PBM E-score": 0.0211},
      {"sequence": "AGGGCCGG", "PBM E-score": 0.212},
      {"sequence": "AACTGGGC", "PBM E-score": -0.189},
      {"sequence": "AACATCCC", "PBM E-score": 0.141}
    ]}
  ]
}
